These are yes or no findings as the source states them, for the method shown. Binding seen in cells or lysates may run through a third protein. Some entries that bind do so weakly or less than the wild type.
Target: wild-type Flag-CTNNA1 (in HEK293T cells) (UniProt P35221)
Assay: co-IP; cytoplasmic extracts (digitonin buffer) of HEK293T cells co-transfected with Flag-tagged CTNNA1 constructs and YAP-GFP, Flag-trap; cells treated with DMSO or BafA1 200 nM overnight, or with or without EBSS for 6 h

Amino acid sequences for entries named in this document (tags omitted).
UniProt P35221: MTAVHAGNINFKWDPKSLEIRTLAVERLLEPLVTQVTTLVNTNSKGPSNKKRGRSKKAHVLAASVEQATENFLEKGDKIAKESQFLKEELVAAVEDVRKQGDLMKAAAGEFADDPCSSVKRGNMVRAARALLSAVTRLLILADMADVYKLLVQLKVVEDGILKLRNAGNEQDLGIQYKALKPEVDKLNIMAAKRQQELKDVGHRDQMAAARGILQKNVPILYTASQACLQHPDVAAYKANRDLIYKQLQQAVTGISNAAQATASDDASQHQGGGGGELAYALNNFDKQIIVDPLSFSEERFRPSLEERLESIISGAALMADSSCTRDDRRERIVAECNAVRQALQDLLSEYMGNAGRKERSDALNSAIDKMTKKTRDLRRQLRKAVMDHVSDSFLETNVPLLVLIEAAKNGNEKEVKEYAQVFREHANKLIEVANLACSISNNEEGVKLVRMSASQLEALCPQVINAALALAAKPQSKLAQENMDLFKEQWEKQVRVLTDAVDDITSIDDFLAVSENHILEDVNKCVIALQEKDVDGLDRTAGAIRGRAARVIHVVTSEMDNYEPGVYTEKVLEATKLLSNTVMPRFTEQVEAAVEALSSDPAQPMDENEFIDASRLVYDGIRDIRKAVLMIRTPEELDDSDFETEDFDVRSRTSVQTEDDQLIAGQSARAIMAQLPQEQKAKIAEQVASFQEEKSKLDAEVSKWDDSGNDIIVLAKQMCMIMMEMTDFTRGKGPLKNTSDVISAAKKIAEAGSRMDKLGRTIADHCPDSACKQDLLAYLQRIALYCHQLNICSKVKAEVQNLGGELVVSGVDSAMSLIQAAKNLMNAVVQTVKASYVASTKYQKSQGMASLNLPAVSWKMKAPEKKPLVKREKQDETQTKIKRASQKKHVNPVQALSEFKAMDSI
UniProt P46937: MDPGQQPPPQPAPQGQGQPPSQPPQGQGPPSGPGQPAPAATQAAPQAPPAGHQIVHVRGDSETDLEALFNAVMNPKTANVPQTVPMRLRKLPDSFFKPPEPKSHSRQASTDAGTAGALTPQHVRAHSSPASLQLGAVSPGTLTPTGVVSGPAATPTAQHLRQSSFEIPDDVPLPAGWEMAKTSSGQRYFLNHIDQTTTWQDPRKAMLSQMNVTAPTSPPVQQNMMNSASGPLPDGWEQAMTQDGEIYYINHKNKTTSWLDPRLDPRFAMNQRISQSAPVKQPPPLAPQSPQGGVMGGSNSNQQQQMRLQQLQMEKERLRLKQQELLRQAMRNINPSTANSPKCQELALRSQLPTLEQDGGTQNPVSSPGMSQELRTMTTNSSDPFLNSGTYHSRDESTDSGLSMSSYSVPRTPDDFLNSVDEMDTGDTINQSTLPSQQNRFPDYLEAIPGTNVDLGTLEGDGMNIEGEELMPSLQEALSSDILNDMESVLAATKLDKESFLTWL

GFP-YAP (from UniProt P46937 1-504)
binding: binds

Reference: publication PMC7969950
